Our source for the binding values is doi:10.1101/2022.12.06.519357.

Protein sequences, listed by entry. Tags and fused reporters are not part of them.
UniProt Q96GY3: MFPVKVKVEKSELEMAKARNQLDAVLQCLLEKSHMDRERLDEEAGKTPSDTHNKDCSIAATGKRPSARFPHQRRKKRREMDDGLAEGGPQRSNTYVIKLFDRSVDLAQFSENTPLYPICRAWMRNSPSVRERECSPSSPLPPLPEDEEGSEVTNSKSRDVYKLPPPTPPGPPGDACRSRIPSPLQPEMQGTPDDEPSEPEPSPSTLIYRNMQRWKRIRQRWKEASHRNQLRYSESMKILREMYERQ
UniProt P10244: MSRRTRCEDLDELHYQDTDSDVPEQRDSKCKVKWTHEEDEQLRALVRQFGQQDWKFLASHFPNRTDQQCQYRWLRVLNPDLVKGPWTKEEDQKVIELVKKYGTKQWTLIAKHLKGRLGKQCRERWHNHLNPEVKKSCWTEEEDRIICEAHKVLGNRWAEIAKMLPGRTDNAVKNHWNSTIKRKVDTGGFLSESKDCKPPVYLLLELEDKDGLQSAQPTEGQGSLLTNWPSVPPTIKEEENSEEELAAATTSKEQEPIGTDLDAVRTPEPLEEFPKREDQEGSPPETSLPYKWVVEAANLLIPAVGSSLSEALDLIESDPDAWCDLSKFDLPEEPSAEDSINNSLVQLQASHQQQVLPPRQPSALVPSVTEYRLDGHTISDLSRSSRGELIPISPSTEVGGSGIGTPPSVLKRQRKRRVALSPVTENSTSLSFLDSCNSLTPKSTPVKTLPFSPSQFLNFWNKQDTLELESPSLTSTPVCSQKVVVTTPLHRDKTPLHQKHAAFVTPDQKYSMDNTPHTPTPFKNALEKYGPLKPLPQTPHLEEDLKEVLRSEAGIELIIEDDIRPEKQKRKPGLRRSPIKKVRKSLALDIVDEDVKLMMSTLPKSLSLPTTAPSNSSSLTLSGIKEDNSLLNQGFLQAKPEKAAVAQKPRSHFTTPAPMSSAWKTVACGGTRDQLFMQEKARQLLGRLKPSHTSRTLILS
UniProt Q5TKA1: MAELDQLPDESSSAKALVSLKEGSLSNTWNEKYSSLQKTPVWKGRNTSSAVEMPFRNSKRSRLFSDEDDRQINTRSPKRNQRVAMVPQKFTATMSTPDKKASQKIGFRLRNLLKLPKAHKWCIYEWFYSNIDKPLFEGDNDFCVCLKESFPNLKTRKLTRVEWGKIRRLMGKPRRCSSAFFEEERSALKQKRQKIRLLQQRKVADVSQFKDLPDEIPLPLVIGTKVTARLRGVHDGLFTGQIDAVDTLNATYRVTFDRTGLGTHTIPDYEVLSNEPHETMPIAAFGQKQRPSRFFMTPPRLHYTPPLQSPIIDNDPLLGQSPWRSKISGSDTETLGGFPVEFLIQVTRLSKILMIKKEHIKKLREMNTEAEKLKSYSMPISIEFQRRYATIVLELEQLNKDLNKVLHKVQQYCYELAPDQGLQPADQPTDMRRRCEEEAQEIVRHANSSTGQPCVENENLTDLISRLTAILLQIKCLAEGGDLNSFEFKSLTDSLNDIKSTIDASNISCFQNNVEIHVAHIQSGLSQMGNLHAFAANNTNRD
UniProt Q08999: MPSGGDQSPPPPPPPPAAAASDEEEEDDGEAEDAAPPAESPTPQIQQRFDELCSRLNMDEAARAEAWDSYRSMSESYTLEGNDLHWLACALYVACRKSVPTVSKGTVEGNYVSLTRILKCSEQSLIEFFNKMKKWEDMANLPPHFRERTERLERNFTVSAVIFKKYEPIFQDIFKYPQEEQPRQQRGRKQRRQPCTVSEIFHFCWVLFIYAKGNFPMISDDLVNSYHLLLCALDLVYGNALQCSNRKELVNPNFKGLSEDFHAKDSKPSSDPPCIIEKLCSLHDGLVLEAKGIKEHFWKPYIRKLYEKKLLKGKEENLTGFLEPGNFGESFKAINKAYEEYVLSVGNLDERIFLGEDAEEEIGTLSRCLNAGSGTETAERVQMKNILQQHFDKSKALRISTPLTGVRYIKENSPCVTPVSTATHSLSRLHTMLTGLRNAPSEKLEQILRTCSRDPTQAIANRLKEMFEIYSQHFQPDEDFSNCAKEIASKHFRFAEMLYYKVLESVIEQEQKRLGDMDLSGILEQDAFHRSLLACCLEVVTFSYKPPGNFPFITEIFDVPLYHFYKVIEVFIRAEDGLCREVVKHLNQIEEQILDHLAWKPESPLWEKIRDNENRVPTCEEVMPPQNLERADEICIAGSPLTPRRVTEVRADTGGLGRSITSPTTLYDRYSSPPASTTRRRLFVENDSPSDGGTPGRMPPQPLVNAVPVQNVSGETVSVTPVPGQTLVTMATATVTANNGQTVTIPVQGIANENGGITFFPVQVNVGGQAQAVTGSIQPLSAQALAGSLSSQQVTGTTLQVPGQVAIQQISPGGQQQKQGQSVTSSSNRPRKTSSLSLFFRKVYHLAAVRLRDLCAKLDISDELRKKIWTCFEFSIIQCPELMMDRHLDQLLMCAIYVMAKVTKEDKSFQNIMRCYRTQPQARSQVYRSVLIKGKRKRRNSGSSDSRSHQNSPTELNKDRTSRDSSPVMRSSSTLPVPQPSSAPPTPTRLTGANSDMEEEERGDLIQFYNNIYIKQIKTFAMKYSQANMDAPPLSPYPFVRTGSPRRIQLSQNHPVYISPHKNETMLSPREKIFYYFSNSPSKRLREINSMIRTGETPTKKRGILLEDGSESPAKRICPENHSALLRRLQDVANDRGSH

Results are given in words; binding and its absence hold for the method and conditions named. In cells and extracts the contact can be indirect. Some entries that bind do so weakly or less than the wild type.

The target in the test is LIN37 (human (endogenous in SKOV3 and Kuramochi)) (UniProt Q96GY3). Briefly: co-IP.
As for B-MYB (from UniProt P10244 1-700), the binding result is listed as “binds”. As to LIN9 (from UniProt Q5TKA1 1-542), the binding entry is recorded as “binds”. Turning to p130 (from UniProt Q08999 1-1139), the binding result is listed as “binds”.
